# Data published in PubChem BioAssay AID540256 (National Center for Advancing Translational Sciences (NCATS), 2011).
# About 3,700 (1.2%) of roughly 300,000 compounds were called active. Inconclusive means that the source gave no clear call. Such entries were picked first, then a sample of the others. Calls follow the shape of the full dose curve; tested in HEK293 cells. Potencies beside an inconclusive call are fits to weak or partial responses and may not hold up.
# Test: qHTS for Inhibitors of binding or entry into cells for Lassa Virus; also: nearly all actives have a fitted effect of over 50% in size
# Conditions: Lassa virus pseudotype entry inhibition, cell reporter; series mostly up to 37.9 µM
# Potency is read from the fitted curve at half-maximal effect.
row,SMILES,Potency
1,CC1Cc2cc(S(=O)(=O)N3CCN(c4ccc(Cl)cc4)CC3)ccc2N1C(=O)C1CC1 (configuration not stated),"inconclusive: 35.5 µM [inhibitor, single point]"
2,CCc1ccccc1NC(=O)c1cnc2sc(N3CCOCC3)nn2c1=O,"inconclusive: 20 µM [activator, partial curve, poor fit]"
3,COc1cc(/C=C/C(=O)c2c(O)cc(C)oc2=O)cc(OC)c1O,inactive
4,COc1ccc(C(CC(=O)NCc2ccccc2)N2Cc3ccccc3C2=O)cc1 (configuration not stated),"inconclusive: 35.5 µM [inhibitor, single point]"
5,Cc1[nH]c2ccccc2c1SCc1nnc(SCc2ccc(Cl)cc2)n1C,"inconclusive: 10 µM [inhibitor, partial curve, poor fit]"
6,CCC(Oc1ccc(F)cc1)C(=O)Nc1nc(-c2ccc(F)cc2)ns1 (configuration not stated),"inconclusive: 35.5 µM [inhibitor, single point]"
7,COc1cccc(NS(=O)(=O)c2cc3c4c(c2)CCC(=O)N4CCC3)c1,"inconclusive: 35.5 µM [inhibitor, partial curve, poor fit]"
8,CCn1c(=O)n(CC)c2cc(N3CCCCC3)c(NC(=O)Nc3ccccc3C(F)(F)F)cc21,"inconclusive: 35.5 µM [inhibitor, partial curve, poor fit]"
9,COc1ccc(Nc2ncc3c(n2)CC(c2ccccc2)CC3=O)cc1 (configuration not stated),active: 0.92 µM
10,Cc1ccc(/C=N/N2CCN(c3ccccn3)CC2)cc1,"inconclusive: 22.4 µM [activator, single point]"
11,Cc1ccc(CNC(=O)Cn2cc(S(=O)(=O)Cc3ccccc3F)c3ccccc32)cc1,inactive
12,O=[N+]([O-])c1ccc(N2CCN(Cc3ccc4c(c3)OCO4)CC2)nc1,"inconclusive: 39.8 µM [inhibitor, partial curve, poor fit]"
13,COc1ccc(-c2c(C)nn3c(N4CCC(C(=O)NCCN(C)C)CC4)cc(C)nc23)cc1OC,inactive
14,O=C(Cc1csc(NC(=O)Nc2cccc(Cl)c2)n1)NCc1ccccn1,inactive
15,COC(=O)CSc1nnc(CNC(=O)c2ccco2)n1-c1ccc(F)cc1,inactive
16,Cc1cccc(CC(=O)N2CCC(N3CCC(C(=O)N4CCOCC4)CC3)CC2)c1,"inconclusive: 0.562 µM [inhibitor, partial curve, poor fit]"
17,CCOC(=O)C(CC)(CC)C(=O)/C=C/c1cccc(Br)c1,"inconclusive: 35.5 µM [inhibitor, single point]"
18,CS(=O)(=O)Nc1ccc(C(=O)Nc2ccc(S(=O)(=O)Nc3nccs3)cc2)cc1,inactive
19,O=C(O)CSc1sc(=S)sc1SCC(=O)O,inactive
20,CN(C)S(=O)(=O)c1cccc(NC(=O)CSc2nc3ccccc3n2-c2ccccc2)c1,"inconclusive: 8.91 µM [inhibitor, partial curve]"
21,Cc1cc(/N=C/C=C2/N(C)c3ccccc3C2(C)C)n(CCC#N)n1,"inconclusive: 11.2 µM [inhibitor, partial curve, poor fit]"
22,COc1ccc(CC(=O)Nc2nc(-c3ccncc3)cs2)cc1,"inconclusive: 17.8 µM [inhibitor, partial curve, poor fit]"
23,Clc1ccccc1CN1CCNCC1,"inconclusive: 10 µM [activator, partial curve, poor fit]"

# Given tab-delimited: 4 of the compounds above
row	SMILES	Potency
8	CCn1c(=O)n(CC)c2cc(N3CCCCC3)c(NC(=O)Nc3ccccc3C(F)(F)F)cc21	inconclusive: 35.5 µM [inhibitor, partial curve, poor fit]
10	Cc1ccc(/C=N/N2CCN(c3ccccn3)CC2)cc1	inconclusive: 22.4 µM [activator, single point]
12	O=[N+]([O-])c1ccc(N2CCN(Cc3ccc4c(c3)OCO4)CC2)nc1	inconclusive: 39.8 µM [inhibitor, partial curve, poor fit]
17	CCOC(=O)C(CC)(CC)C(=O)/C=C/c1cccc(Br)c1	inconclusive: 35.5 µM [inhibitor, single point]

# (more compounds)

row,SMILES,Potency
1,CC(=O)C1C(N2CC2)CC2C3CCC4=CC(=O)CCC4(C)C3CCC21C (configuration not stated),"inconclusive: 22.4 µM [inhibitor, single point]"
2,CC1CC(C)CN(CCCNC(=O)CN2C(=O)CSc3ccc(S(=O)(=O)N4CCCCC4)cc32)C1 (configuration not stated),"inconclusive: 35.5 µM [inhibitor, single point]"
3,N#Cc1c(N)nc2c(c1-c1ccc3c(c1)OCO3)CCc1ccccc1-2,"inconclusive: 12.6 µM [inhibitor, partial curve, poor fit]"
4,COc1cc(CNn2cn[nH]c2=S)cc(Cl)c1OCc1ccc(F)cc1,"inconclusive: 35.5 µM [inhibitor, partial curve, poor fit]"
5,COC(=O)c1ccc(NC(=O)CCc2c(C)nc3c(c2C)c(=O)n(C)c(=O)n3C)cc1,inactive
6,Cc1ccc(-c2nc3ccc(Cl)cn3c2Nc2ccccc2C)s1,"inconclusive: 22.4 µM [activator, single point]"
7,CCc1c(C#N)c(SCc2c(C)noc2C)nc2c1C(=O)CC(C)(C)C2,"inconclusive: 23.1 µM [inhibitor, single point]"
8,CN(Cc1ccccc1)C(=O)CSc1nc2ccccc2n1Cc1ccccc1F,"inconclusive: 3.16 µM [activator, single point]"
9,COC(=O)Cn1cc(C(=O)C(C)(C)C)c2ccccc21,inactive
10,O=C(O)CCn1cc(/C=C/C(=O)c2ccc(Cl)cc2)c(-c2ccc(Br)cc2)n1,inactive
11,CC(=O)C(Cc1cccc(F)c1)(Cc1cccc(F)c1)C(C)=O,inactive
12,CC(OC(=O)c1ccc(S(=O)(=O)N2CCOCC2)cc1)c1ccccc1 (configuration not stated),"inconclusive: 17.8 µM [inhibitor, partial curve, poor fit]"
13,CC1CCN(C(c2ccc(N(C)C)cc2)c2nnnn2C(C)(C)C)CC1 (configuration not stated),inactive
14,CC(C)c1cnc2c(c1SCC(=O)NCc1ccccc1)c(=O)n(C)c(=O)n2C,inactive
15,O=C(Nc1ccc(Br)cc1C(=O)O)c1ccc2c(c1)C(=O)N(Cc1ccccc1)C2=O,inactive
16,CCc1nc2nc(C)cc(Nc3cccc(C(F)(F)F)c3)n2n1,inactive
17,COc1ccc(C(=O)N2CCN(Cc3ccc4c(c3)OCO4)CC2)cc1[N+](=O)[O-],"inconclusive: 8.91 µM [inhibitor, partial curve, poor fit]"
18,Cc1cccc(OCC(=O)Nc2ccc(N3CCN(C(=O)c4ccccc4)CC3)cc2)c1,inactive
19,COc1cccc(C(=O)NCCSc2c(-c3ccc(F)cc3)[nH]c3ccccc23)c1OC,"inconclusive: 35.5 µM [inhibitor, single point]"
20,FC(F)(F)c1cccc(NC(=S)Nc2ccc(Cl)c(Cl)c2)c1,"inconclusive: 12.6 µM [inhibitor, partial curve, poor fit]"
21,CCNS(=O)(=O)c1ccc(NC(=O)Nc2ccccc2OC)cc1,inactive
22,Cc1cc(C)cc(N(CC(=O)NC2CCCCC2)C(=O)CCCC(=O)Nc2ccccn2)c1,"inconclusive: 35.5 µM [inhibitor, single point]"
23,Cc1c(NC(=O)c2ccc(OC(C)C)cc2)cccc1-c1nc2ncccc2o1,inactive

row,SMILES,Potency
1,COc1ccc(CC2C(=O)NC(C)C(=O)N(C)C3C(=O)N(C)C(Cc4ccc(O)c(c4)Oc4ccc(cc4)C3O)C(=O)NC(C)C(=O)NC(C)C(=O)N2C)cc1 (configuration not stated),"inconclusive: 0.1 µM [inhibitor, full curve, poor fit]"
2,O=C(COc1ccc(/C=N/NS(=O)(=O)c2ccccc2)cc1)NCCc1ccccc1,"inconclusive: 35.5 µM [inhibitor, single point]"
3,CC(=O)Nc1cc2c(cc1[N+](=O)[O-])-c1ccccc1C2=NO,inactive
4,CCOC(=O)c1sc(NC(=O)CCN2CCN(C)CC2)c(C(=O)OCC)c1C,active: 11.2 µM
5,Cc1ccc(C(=O)NCCn2c(C)cc3ccccc32)cc1C,"inconclusive: 35.5 µM [inhibitor, single point]"
6,COc1ccc(C(=O)Nn2c(SCC(=O)c3ccc(Cl)cc3)nc3ccccc3c2=O)cc1,"inconclusive: 14.6 µM [inhibitor, partial curve, poor fit]"
7,COc1cc2[nH]c3c(Cl)ncnc3c2cc1OC,"inconclusive: 7.08 µM [activator, partial curve, poor fit]"
8,COc1ccccc1C(=O)N1CCN(C(=O)c2oc3ccc(C)cc3c2C)CC1,"inconclusive: 14.1 µM [inhibitor, partial curve, poor fit]"
9,O=C(NNC(=O)c1cccc(Cl)c1)NNC(=O)c1cccc(Cl)c1,inactive
10,Cc1onc(-c2ccccc2)c1C(=O)N/N=C/c1cc(Br)c(Br)o1,"inconclusive: 12.6 µM [inhibitor, partial curve, poor fit]"
11,Cc1onc(-c2ccc(Cl)cc2Cl)c1-c1csc(N/N=C/c2ccccc2)n1,"inconclusive: 35.5 µM [inhibitor, single point]"
12,CN(C)CCNC(=O)c1ccc(-n2c(-c3ccccc3)cc3c2CCCC3)cc1,"inconclusive: 35.5 µM [inhibitor, single point]"
13,CC(CN(C)C)CN1c2ccccc2CCc2ccccc21 (configuration not stated),"inconclusive: 16.4 µM [inhibitor, single point]"
14,CC(C)(C)c1cc(CCC(=O)N2CCNCC2)c(C(C)(C)C)cc1O,inactive
15,CCc1ccc(CNC(=O)c2ccc3c(c2)N=C(C)c2cc(C)ccc2S3)cc1,"inconclusive: 7.08 µM [inhibitor, full curve, poor fit]"
16,CC1c2[nH]c3ccccc3c2CCN1C(=O)Nc1ccccc1 (configuration not stated),"inconclusive: 4.47 µM [inhibitor, full curve, poor fit]"
17,COc1ccc(N2C(N)=C(C#N)C(c3ccsc3)C3=C2CCCC3=O)c(OC)c1 (configuration not stated),"inconclusive: 35.5 µM [inhibitor, single point]"
18,Brc1ccc(-c2nnc3c4ccccc4nc(N4CCOCC4)n23)cc1,inactive
19,COc1ccc(NS(=O)(=O)c2cc(C(=O)N3CCN(C/C=C/c4ccccc4)CC3)ccc2C)cc1,"inconclusive: 35.5 µM [inhibitor, single point]"
20,COc1ccc(NC(=O)Cn2c(=O)oc3cc(S(=O)(=O)NC4CCCC4)ccc32)cc1OC,inactive
21,CCN(CC(=O)Nc1ccc2c(c1)OCCO2)S(=O)(=O)c1cccs1,inactive
